Consider two molecules from article PMC8630788.

Chains of the proteins cited; added tags and fusions are not shown.
UniProt P62993: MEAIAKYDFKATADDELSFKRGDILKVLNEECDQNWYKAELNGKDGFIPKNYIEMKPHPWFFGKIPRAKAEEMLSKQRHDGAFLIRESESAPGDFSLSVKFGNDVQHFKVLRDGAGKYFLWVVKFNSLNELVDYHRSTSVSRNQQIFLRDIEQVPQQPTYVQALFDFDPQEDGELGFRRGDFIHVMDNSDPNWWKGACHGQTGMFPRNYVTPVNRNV

These are yes or no findings as the source states them, for the method shown. Some binding calls cover weakened binding; strength is not graded here. For some assays here: Where a sequence is shown, tags or fusion partners need not be part of it.

In assay [1] the target is optimized bait-PAR-Grb2, RFP-fused (UniProt P62993). Briefly: subcellular micropatterning (bait-prey copatterning, TIRF microscopy); live cells with bait-PAR-Grb2 micropatterns and HRas-CFP, Raf1-CFP or MEK1-GFP (Figure S2); EGF stimulation named for Raf1 only.
The target is the same in assay [2]. Briefly: subcellular micropatterning (bait-prey copatterning, TIRF microscopy); competition in live HeLa cells: bait-PAR-Grb2-RFP and Gab1-GFP on anti-HA patterns, cyclo(YpVNFΦrpPRR) added to the cells (100 μM over time; dose-response); bait-normalized contrast set between 0 and 100%.

Turning to “MEK1 (mitogen-activated protein kinase kinase 1), GFP-fused (from UniProt Q02750 1-393)”, the binding result in assay [1] is listed as “no binding”.

B1: Grb2-associated-binding protein 1 (Gab1), GFP-fused (protein, UniProt Q13480 1-694)
chain: MSGGEVVCSGWLRKSPPEKKLKRYAWKRRWFVLRSGRLTGDPDVLEYYKNDHAKKPIRIIDLNLCQQVDAGLTFNKKEFENSYIFDINTIDRIFYLVADSEEEMNKWVRCICDICGFNPTEEDPVKPPGSSLQAPADLPLAINTAPPSTQADSSSATLPPPYQLINVPPHLETLGIQEDPQDYLLLINCQSKKPEPTRTHADSAKSTSSETDCNDNVPSHKNPASSQSKHGMNGFFQQQMIYDSPPSRAPSASVDSSLYNLPRSYSHDVLPKVSPSSTEADGELYVFNTPSGTSSVETQMRHVSISYDIPPTPGNTYQIPRTFPEGTLGQTSKLDTIPDIPPPRPPKPHPAHDRSPVETCSIPRTASDTDSSYCIPTAGMSPSRSNTISTVDLNKLRKDASSQDCYDIPRAFPSDRSSSLEGFHNHFKVKNVLTVGSVSSEELDENYVPMNPNSPPRQHSSSFTEPIQEANYVPMTPGTFDFSSFGMQVPPPAHMGFRSSPKTPPRRPVPVADCEPPPVDRNLKPDRKVKPAPLEIKPLPEWEELQAPVRSPITRSFARDSSRFPMSPRPDSVHSTTSSSDSHDSEENYVPMNPNLSSEDPNLFGSNSLDGGSSPMIKPKGDKQVEYLDLDLDSGKSTPPRKQKSSGSGSSVADERVDYVVVDQQKTLALKSTREAWTDGRQSTESETPAKSVK
As to B1, in assay [2], the binding result is reported as “binds”.
